Test results published in article doi:10.1101/355487.
No constants are given. Whether binding was seen depends on the method and setting. Binding seen in cells or lysates may run through a third protein. Some results given as binding are weak or reduced against the parent protein; the word gives no strength.

By UniProt entry, the sequences of proteins in these tests, tags left out. Residues count along the entry.
UniProt Q03188, residues 723-943: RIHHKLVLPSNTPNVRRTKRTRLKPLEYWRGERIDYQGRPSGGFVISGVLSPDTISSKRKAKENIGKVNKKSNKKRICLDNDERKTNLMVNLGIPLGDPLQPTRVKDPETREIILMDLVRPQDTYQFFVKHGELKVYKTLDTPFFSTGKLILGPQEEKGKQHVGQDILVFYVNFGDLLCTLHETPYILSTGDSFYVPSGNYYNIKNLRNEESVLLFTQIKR

Biological target: GST-Prescission-hsCENP-C^723-943 (human) (UniProt Q03188)
Experiment: pull-down

binding: binds
B1: HsM18BP1^325-480 (domain or fragment, UniProt Q6P0N0 325-480)
chain: TVPGETGLPGSMKDTCKIVLATPRLHITIPRRSKRNISKLSPPRIFQTVTNGLKKNQVVQLQEWMIKSINNNTAICVEGKLIDVTNIYWHSNVIIERIEHNKLRTISGNVYILKGMIDQISMKEAGYPNYLIRKFMFGFPENWKEHIDNFLEQLRA
